# Reference: US5474993A, “Lactam inhibitors of cholesterol esterase” (Sterling Winthrop, Inc., priority 1994, dated 1995)
# The name of at least one read-out is uncertain.
# What was measured:
# Assay type in all cases: biochemical
# bovine chymotrypsin = test: Specificity: chymotrypsin activity assay; details: inhibitor conc. 3.06 mM in Table 1 (3.1 μM in Table 2); enzyme 6.0 nM; Suc-AAPF-p-NA 0.3 mM; HEPES 50 mM, pH 7.8
# bovine trypsin = test: Specificity: trypsin activity assay; details: inhibitor conc. 3.06 mM in Table 1 (4.6 μM in Table 2); enzyme 3.2 nM; N-Chz-GPR-p-NA 0.2 mM; HEPES 50 mM, pH 7.8
# porcine elastase (PPE) = test: Specificity: porcine elastase (PPE) activity assay; details: inhibitor conc. 3.06 mM in Table 1 (3.1 μM in Table 2); enzyme 8.4 nM; Suc-AAPL-p-NA 4.7 mM; HEPES 50 mM, pH 7.8
structure (smiles),measurement,setting,value
"C=C1N2C(=O)[C@@H](NC(c3ccccc3)(c3ccccc3)c3ccccc3)[C@H]2SC1(C)C [Example 1, 3,3 dimethyl-2-methylene-7-oxo-6-tritylamino-4-thia-1-azabicyclo[3.2.0]heptane]","Percentage Reduction in Activity, Chymotrypsin",bovine chymotrypsin,100%
same,"Percentage Reduction in Activity, Trypsin",bovine trypsin,72%
same,"Percentage Reduction in Activity, PPE",porcine elastase (PPE),9%
